# Primary screen of a compound library

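Viability assay of Plasmodium falciparum sporozoites; the read-out is not stated. The concentration is filed as 10 mM, unlikely as a test dose, so the dose is not known. Direction is inferred from retests: higher values go with lower viability. Strong results were mostly tested again. Size under these conditions: about 34,000 compounds, about 280 of them at 50% or above in at least one test.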

Each number is a percent effect as filed.
The record does not define 0% and 100%; most values in the screen are far below 50% and negative numbers occur (in some assays of this library far below -100).
This is an unselected part of the compounds tested.
Two or more numbers in one place are separate tests of the same structure; such repeats can differ widely.

{"structure": "Cn1cnnc1C1CCCN(C(=O)c2ccccc2Cl)C1", "stereo": "stereo not given", "percent effect": -4.162}
{"structure": "Cc1cccc(CN2C(=O)CCC23CCN(C(=O)NC(C)C)CC3)n1.O=C(O)C(F)(F)F", "percent effect": -8.664}
{"structure": "Cc1cc(C)c2nc(CN3CCC(CN)C3)cc(O)c2c1", "stereo": "stereo not given", "percent effect": -4.961}
{"structure": "COC(=O)Cn1c(C)cc(=O)c2cc(F)ccc21", "percent effect": -1.817}
{"structure": "Cc1cnn(C2CN(CCOc3ccccc3C#N)C2)c1", "percent effect": -16.87}
{"structure": "Cn1cnc2c1C(COCc1cccnc1)N(Cc1ccccn1)CC2", "stereo": "stereo not given", "percent effect": 8.55}
{"structure": "CN(C)c1ccc(NC(=O)N2CCc3sccc3C2)cn1", "percent effect": "-28.69 and -25.94 and -10.06"}
{"structure": "O=C(O)C(F)(F)F.O=C(O)C(F)(F)F.O=C(O)C(F)(F)F.[H][C@]12CC(Cn3cccn3)N(C)[C@@]1([H])CCN(Cc1ccc(C)s1)C2", "stereo": "stereo not given in full", "percent effect": -4.208}
{"structure": "Cc1cnc(N2CCn3cc(CNC(=O)CC4CC4)nc3C2)nc1", "percent effect": -2.422}
{"structure": "COC(=O)c1cccc(OCCn2nc(-c3cccs3)oc2=O)c1", "percent effect": -0.4177}
{"structure": "CC(O)CNC(=O)Nc1ccc(Br)cc1Br", "stereo": "stereo not given", "percent effect": -1.228}
{"structure": "CCNC(=O)N1CCC(OC)c2ccccc2N(CC(=O)NC)C(=O)C1", "stereo": "stereo not given", "percent effect": -35.42}
{"structure": "Cc1nc(C2CCCN2CCC(=O)N2CCc3ccccc32)no1", "stereo": "stereo not given", "percent effect": -3.745}
{"structure": "Cc1nnc(N2CCOC(C)(C(=O)NC3CCCC3)C2)c2ccccc12", "stereo": "stereo not given", "percent effect": -1.448}
{"structure": "NC1C=C(C(F)(F)F)NC=C1c1ccccc1", "stereo": "stereo not given", "percent effect": -7.943}
{"structure": "Cc1cc(C[C@@H]2COC[C@H]2NCc2ccccc2C(F)(F)F)on1.O=C(O)CC(O)(CC(=O)O)C(=O)O", "percent effect": -17.65}
{"structure": "CN1CCCC(c2ccnc(C(=O)NCC3CC3)c2)C1", "stereo": "stereo not given", "percent effect": 1.28}
{"structure": "CC(C)NC(=O)NCc1cc(-c2cccc(Cl)c2)nn1C", "percent effect": 5.843}
{"structure": "N#CCSCCCN1CCN(C(=O)c2ccc(Cl)cc2)CC1", "percent effect": 0.8419}
{"structure": "CN(C)c1ccccc1C(=O)N1CCCC(c2cccc(C(=O)O)c2)C1", "stereo": "stereo not given", "percent effect": -6.446}
{"structure": "CN(Cc1cn2c(n1)CN(C1CCOCC1)CC2)Cc1ccco1.O=C(O)C(F)(F)F.O=C(O)C(F)(F)F", "percent effect": -1.128}
{"structure": "Cc1ccc(F)cc1S(=O)(=O)NCc1cccc(C(=O)N2CCCC2)c1", "percent effect": 1.756}
{"structure": "Cc1ccc(CC(=O)N2CCCN(Cc3nccn3C)CC2)cn1", "percent effect": 1.688}
{"structure": "[H][C@]12CC[C@]([H])(CN(C(=O)c3ccc(F)c(Cl)c3)C1)N(Cc1ccccc1)C2", "percent effect": -16.56}
{"structure": "CCOc1cc(NC(=O)NCCn2cnnc2CC)ccc1C", "percent effect": -10.79}
{"structure": "Cc1cc(NC(=O)CCN(CC2CCOC2)C2CC2)no1", "stereo": "stereo not given", "percent effect": -11.52}
{"structure": "Cc1n[nH]c(C)c1C1COCCN1C(=O)c1cc(F)ccc1F", "stereo": "stereo not given", "percent effect": 10.58}
{"structure": "CN(Cc1noc(C(C)(C)C)n1)C1CCCN(c2cccnn2)C1", "stereo": "stereo not given", "percent effect": 11.13}
{"structure": "COc1c(C2CCCN2Cc2c(C)noc2C)c(C)nn1C", "stereo": "stereo not given", "percent effect": -29.41}
{"structure": "O=C(N1CCCC1)N1CCC2(CC1)CN(c1cccnc1)C(=O)CO2.O=C(O)C(F)(F)F", "percent effect": -9.157}
{"structure": "CN(Cc1ccc(F)cc1)C(=O)Nc1cccnc1N1CCCC1", "percent effect": 3.68}
{"structure": "O=C(O)C(F)(F)F.O=C1NC2(CCN(c3ncccn3)CC2)CC1c1cccnc1", "stereo": "stereo not given", "percent effect": 13.63}
{"structure": "N#Cc1ccccc1OCCN1CCCC1Cn1cccn1", "stereo": "stereo not given", "percent effect": 3.36}
{"structure": "CCn1cc(CN2CCc3nc(-c4ccccn4)nc(O)c3C2)cn1", "percent effect": -2.159}
{"structure": "CC(C)(C)C(Cn1cccn1)NC(=O)c1ccco1", "stereo": "stereo not given", "percent effect": -1.244}
{"structure": "CCCN(C(=O)c1cnc(C)cn1)c1nc2c(s1)CCc1c-2cnn1C", "percent effect": 0.5234}
{"structure": "COCCN(C(=O)c1ccccn1)c1nc2c(s1)CCc1c-2cnn1C", "percent effect": "80.83 and 57.64 and 71.31"}
{"structure": "NC(=O)c1csc(C(=O)N2CCCCC2Cn2cccn2)c1", "stereo": "stereo not given", "percent effect": -13.28}
{"structure": "CCn1cc(CN2CCC(c3ncc(Cl)cc3S(C)(=O)=O)CC2)c(C)n1", "percent effect": 6.224}
{"structure": "Cc1ccc(C)c(C(NC(=O)C(C)(C)C)c2cccnc2)c1", "stereo": "stereo not given", "percent effect": -4.581}
{"structure": "Cc1cc(CN(C)C2CCCN(Cc3noc(C4CC4)n3)C2)on1", "stereo": "stereo not given", "percent effect": 0.08977}
{"structure": "CC(Cn1cccn1)NC(=O)Nc1nncs1", "stereo": "stereo not given", "percent effect": 0.5796}

4 of the entries, repeated:

* CN(Cc1ccc(F)cc1)C(=O)Nc1cccnc1N1CCCC1 | 3.68%
* NC1C=C(C(F)(F)F)NC=C1c1ccccc1 (stereo not given) | -7.943%
* Cc1cc(C)c2nc(CN3CCC(CN)C3)cc(O)c2c1 (stereo not given) | -4.961%
* Cc1ccc(C)c(C(NC(=O)C(C)(C)C)c2cccnc2)c1 (stereo not given) | -4.581%

Source: ChEMBL document CHEMBL3988442, “University of Dundee, Small-Polar-MMV Screening Library” (2021).